Assay results reported in PubChem BioAssay AID256 (DTP/NCI, 2004).
The list is a part of this screen's results and no random one: it is rich in T/C values a quarter to a half above the control, in often repeated tests (any T/C) and in doses without a T/C. Further doses and runs are listed elsewhere. T/C: endpoint of the treated group in % of that of the vehicle group. Some doses have a count of surviving animals in place of a T/C: the source files T/C as zero there, which appears to mark a toxic dose or a test without result, not a measured value. Some survivor counts are full or nearly so, which does not show that the dose was tolerated: survival well below the control is almost never listed, so the zero probably covers shortened survival too. Survivors were counted at the toxicity check, usually on the fifth day, unless a day is given; later deaths do not show. Schedule codes are those of the source, taken here to give the interval after Q, in days (D) or hours (H), and the number of doses after X. Some entries hold several experiments; the values are given in rising order. For survival time, the PubChem record calls one and a half times the control and up active, and a quarter to a half above the control has no call in these data; cut-offs in other NCI protocols can differ. Some T/C values are followed by the survivors on the day toxicity was checked, most often the fifth; without a count, all were alive then.

Tested on: CD2F1 mice, L1210 leukemia ip, survival T/C
Test: NCI In Vivo Anticancer Drug Screen. Data for tumor model L1210 Leukemia (intraperitoneal) in CD2F1 (CDF1) mice
Conditions: higher T/C = longer survival
How it was run: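 In this screen, transplantable tumors were grown in mice given either the compound or its vehicle. Results were expressed as the treated measurement relative to the control measurement.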

[1] = T/C endpoint: mean survival time, dose: 400.0 mg/kg/injection, schedule: Q01DX009 (ip), vehicle: saline with Tween-80
[2] = T/C endpoint: mean survival time, dose: 200.0 mg/kg/injection, schedule: Q01DX001 (ip), vehicle: saline with Tween-80
[3] = T/C endpoint: mean survival time, dose: 400.0 mg/kg/injection, schedule: Q01DX001 (ip), vehicle: saline with Tween-80
[4] = T/C endpoint: mean survival time, dose: 100.0 mg/kg/injection, schedule: Q04DX003 (ip), vehicle: saline with Tween-80
[5] = T/C endpoint: mean survival time, dose: 200.0 mg/kg/injection, schedule: Q04DX003 (ip), vehicle: saline with Tween-80
[6] = T/C endpoint: mean survival time, dose: 400.0 mg/kg/injection, schedule: Q04DX003 (ip), vehicle: saline with Tween-80
[7] = T/C endpoint: mean survival time, dose: 25.0 mg/kg/injection, schedule: Q04DX003 (ip), vehicle: saline with Tween-80
[8] = T/C endpoint: mean survival time, dose: 400.0 mg/kg/injection, schedule: Q01DX009 (ip), vehicle: saline
[9] = T/C endpoint: mean survival time, dose: 400.0 mg/kg/injection, schedule: Q01DX001 (ip), vehicle: saline
[10] = T/C endpoint: mean survival time, dose: 200.0 mg/kg/injection, schedule: Q01DX009 (ip), vehicle: saline with Tween-80
[11] = T/C endpoint: mean survival time, dose: 200.0 mg/kg/injection, schedule: Q01DX009 (ip), vehicle: saline
[12] = T/C endpoint: mean survival time, dose: 100.0 mg/kg/injection, schedule: Q01DX001 (ip), vehicle: saline with Tween-80

With `CN=C(N)N/N=C(\C)c1ccc2c(c1)Cc1cc(/C(C)=N/NC(N)=NC)ccc1-2` the T/C (T/C endpoint: median survival time, dose: 0.75 mg/kg/injection, schedule: Q01DX009 (ip), vehicle: saline with Tween-80) was 125 and 132 % of control, the T/C (T/C endpoint: median survival time, dose: 1.5 mg/kg/injection, schedule: Q01DX009 (ip), vehicle: saline with Tween-80) was 130 and 144 % of control and the T/C (T/C endpoint: median survival time, dose: 3.0 mg/kg/injection, schedule: Q01DX009 (ip), vehicle: saline with Tween-80) was 132 % of control. For the same compound, the survivor count (T/C endpoint: median survival time, dose: 12.0 mg/kg/injection, schedule: Q01DX009 (ip), vehicle: saline with Tween-80) was 1 of 6 and 3 of 6.
`COc1ccc(OC)c(NC(=O)Oc2cccc(NC(C)=O)c2)c1` was tested, and the survivor count (T/C endpoint: mean survival time, dose: 100.0 mg/kg/injection, schedule: Q01DX009 (ip), vehicle: saline with Tween-80) was 6 of 6 and the T/C [1] was 140 % of control.
For `CN(C)C1c2ccccc2-c2ccc(F)cc21` (stereo not drawn), the survivor count (T/C endpoint: mean survival time, dose: 200.0 mg/kg/injection, schedule: Q01DX001 (ip), vehicle: carboxymethylcellulose (CMC)) was 2 of 4 and the survivor count (T/C endpoint: mean survival time, dose: 400.0 mg/kg/injection, schedule: Q01DX001 (ip), vehicle: carboxymethylcellulose (CMC)) was 1 of 4.
With `O=C(CNC(=O)Nc1cccc(C(F)(F)F)c1)NNC(=O)Nc1ccc(Cl)c([N+](=O)[O-])c1` the survivor count [1] was 2 of 6.
In the case of `CCNc1ncc2ccccc2c1-c1ccc(N2CCN(CCCl)CC2)cc1`, the survivor count (T/C endpoint: mean survival time, dose: 400.0 mg/kg/injection, schedule: Q04DX003 (ip), vehicle: saline + alcohol) is reported as 0 of 3.
For `C(#Cc1ccccc1)/C=C/C=C/c1ccccc1`, the survivor count [2] was 6 of 6 and the survivor count [3] was 6 of 6.
`CC(=O)C1(O)Cc2c(O)c3c(c(O)c2C(OC2CC(N)C(O)C(C)O2)C1)C(=O)c1ccccc1C3=O` (stereo not drawn) was tested, and the T/C (T/C endpoint: mean survival time, dose: 0.2 mg/kg/injection, schedule: Q01DX009 (ip), vehicle: water) was 129 % of control and the survivor count (T/C endpoint: mean survival time, dose: 1.6 mg/kg/injection, schedule: Q01DX009 (ip), vehicle: water) was 5 of 6.
With `[CH3][Sn]([CH3])([Br])[CH2]CC[CH2][Sn]([CH3])([CH3])[Br]` the survivor count (T/C endpoint: mean survival time, dose: 0.39 mg/kg/injection, schedule: Q01DX009 (ip), vehicle: saline) was 0 of 3, the survivor count (T/C endpoint: mean survival time, dose: 0.78 mg/kg/injection, schedule: Q01DX009 (ip), vehicle: saline) was 0 of 3 and the survivor count (T/C endpoint: mean survival time, dose: 1.56 mg/kg/injection, schedule: Q01DX009 (ip), vehicle: saline) was 0 of 3. The survivor count (T/C endpoint: mean survival time, dose: 3.12 mg/kg/injection, schedule: Q01DX009 (ip), vehicle: saline) was 0 of 3, the survivor count (T/C endpoint: mean survival time, dose: 6.25 mg/kg/injection, schedule: Q01DX009 (ip), vehicle: saline) was 0 of 3 and the survivor count (T/C endpoint: mean survival time, dose: 12.5 mg/kg/injection, schedule: Q01DX009 (ip), vehicle: saline) was 0 of 3. For the same compound, the survivor count (T/C endpoint: mean survival time, dose: 25.0 mg/kg/injection, schedule: Q01DX009 (ip), vehicle: saline) was 0 of 3.
In the case of `CCCCCCCCCCOc1ccc(OCCCCCCCCC)cc1`, the survivor count [3] is reported as 6 of 6.
With `Nc1ncnc2[nH]ncc12` the survivor count (T/C endpoint: median survival time, dose: 24.0 mg/kg/injection, schedule: Q01DX009 (ip), vehicle: saline) was 5 of 6 and 6 of 6.
In the case of `CCCCCCCCCCCCOC(=O)C[n+]1cccc(C(=O)NCc2ccccc2)c1`, the survivor count [4] is reported as 0 of 6, the survivor count [5] is reported as 0 of 6 and the survivor count [6] is reported as 0 of 6.
With `OC1C2CCC(C2)C1C(O)(C(F)(F)F)C(F)(F)F` (stereo not drawn) the survivor count [7] was 4 of 6.
For `CCCC(C)C1(CC)NC(C)(C)CC(C)O1` (stereo not drawn), the survivor count [6] was 3 of 6.
With `N#CSCc1cc(=O)c(O)co1` the survivor count [7] was 2 of 6, the survivor count [4] was 0 of 6 and the survivor count [5] was 0 of 6. The survivor count [6] was 0 of 6.
`NCCOC(=O)/C=C/c1ccccc1` was tested, and the survivor count [8] was 3 of 6.
For `Cc1ccc([N+](=O)[O-])cc1NC(=O)Nc1onc(C)c1C`, the survivor count (T/C endpoint: mean survival time, dose: 50.0 mg/kg/injection, schedule: Q01DX009 (ip), vehicle: Klucel (hydroxypropylcellulose) (HPC)) was 3 of 3.
In the case of `c1ccc([Te][Te]c2ccccc2)cc1`, the survivor count (T/C endpoint: median survival time, dose: 100.0 mg/kg/injection, schedule: Q01DX009 (ip), vehicle: saline with Tween-80) is reported as 4 of 6 and the survivor count (T/C endpoint: median survival time, dose: 200.0 mg/kg/injection, schedule: Q01DX009 (ip), vehicle: saline with Tween-80) is reported as 0 of 6.
In the case of `C=C(C)CSc1ccccc1`, the survivor count [9] is reported as 1 of 6.
In the case of `O=S1(=O)CCC2C1C1(Cl)C(Cl)=C(Cl)C2(Cl)C1(Cl)Cl` (stereo not drawn), the survivor count (T/C endpoint: mean survival time, dose: 50.0 mg/kg/injection, schedule: Q01DX009 (ip), vehicle: saline sonified) is reported as 5 of 6.
In the case of `OCC1OC(n2cnc3c([Se]Cc4ccccn4)ncnc32)C(O)C1O` (stereo not drawn), the survivor count (T/C endpoint: mean survival time, dose: 25.0 mg/kg/injection, schedule: Q01DX005 (ip), vehicle: saline) is reported as 3 of 6 and the survivor count (T/C endpoint: mean survival time, dose: 50.0 mg/kg/injection, schedule: Q01DX005 (ip), vehicle: saline) is reported as 0 of 6.
For `Cn1c(-c2ccc(/C=N\N3CCN(/N=C/c4ccc(-c5c[n+]6ccsc6n5C)cc4)CC3)cc2)c[n+]2ccsc12`, the survivor count (T/C endpoint: median survival time, dose: 6.0 mg/kg/injection, schedule: Q01DX005 (ip), vehicle: saline with Tween-80) was 1 of 6 and the survivor count (T/C endpoint: median survival time, dose: 12.0 mg/kg/injection, schedule: Q01DX005 (ip), vehicle: saline with Tween-80) was 0 of 6.
In the case of `NC1=CC(=O)c2ccccc2C1=O`, the survivor count [10] is reported as 6 of 6.
In the case of `[Co].[N-]=C=S.[N-]=C=S.[N-]=C=S.[N-]=C=S`, the survivor count (T/C endpoint: mean survival time, dose: 200.0 mg/kg/injection, schedule: Q04DX002 (ip), vehicle: saline) is reported as 1 of 3 and the survivor count (T/C endpoint: mean survival time, dose: 400.0 mg/kg/injection, schedule: Q04DX002 (ip), vehicle: saline) is reported as 0 of 3.
With `CN(C)[C@@H]1C(=O)C(C(N)=O)=C(O)[C@@]2(O)C(=O)C3=C(O)c4c(O)ccc(Cl)c4[C@@](C)(O)[C@H]3C[C@@H]12` the T/C [10] was 143 % of control, the T/C [11] was 140 % of control [4 of 6 alive] and the survivor count [1] was 0 of 6 and 6 of 10. The survivor count [8] was 0 of 6.
In the case of `Nc1nc(N)c2nc(CNc3ccc(C(=O)NC(CCC(=O)O)C(=O)O)cc3)cnc2n1` (stereo not drawn), the survivor count (T/C endpoint: mean survival time, dose: 2.6 mg/kg/injection, schedule: Q01DX009 (ip), vehicle: alkali diluted with saline) is reported as 6 of 6, the survivor count (T/C endpoint: mean survival time, dose: 4.0 mg/kg/injection, schedule: Q01DX009 (ip), vehicle: alkali diluted with saline) is reported as 5 of 6 and the survivor count (T/C endpoint: mean survival time, dose: 6.0 mg/kg/injection, schedule: Q01DX009 (ip), vehicle: alkali diluted with saline) is reported as 5 of 6.
In the case of `COc1ccc(Cc2cncc3cc(OC)c(OC)cc23)cc1OC`, the survivor count [9] is reported as 1 of 6.
In the case of `OCCOc1ccc2ccccc2c1-c1c(OCCOc2ccc3ccccc3c2-c2c(OCCO)ccc3ccccc23)ccc2ccccc12`, the survivor count [12] is reported as 3 of 3 and the survivor count [2] is reported as 3 of 3.
For `C(/C=C\c1ccccc1)=C(/C=C/c1ccccc1)/C=C/c1ccccc1`, the survivor count [12] was 6 of 6.
For `CCCCOCN(COCCCC)C(C)Cc1ccccc1` (stereo not drawn), the survivor count [1] was 3 of 6.
`CCOc1ccncc1[N+](=O)[O-]` was tested, and the survivor count (T/C endpoint: mean survival time, dose: 200.0 mg/kg/injection, schedule: Q01DX009 (ip), vehicle: saline sonified) was 3 of 6 and the survivor count (T/C endpoint: mean survival time, dose: 400.0 mg/kg/injection, schedule: Q01DX009 (ip), vehicle: saline sonified) was 0 of 6.
For `Nc1nc(N)nc(-c2ccccn2)n1`, the T/C (T/C endpoint: mean survival time, dose: 100.0 mg/kg/injection, schedule: Q01DX009 (ip), vehicle: saline) was 126 % of control [2 of 3 alive] and the survivor count [11] was 0 of 3.
For `CC(=O)OC1CC2(O)C3CCC4CC(O)CCC4(C)C3CCC2(C)C1C1=CC(=O)OC1` (stereo not drawn), the survivor count [3] was 2 of 6.
`CC[n+]1ccc(Nc2ccc(NC(=O)c3ccc(Nc4cc[n+](CC)c5ccc(N)cc45)cc3)cc2)cc1` was tested, and the T/C (T/C endpoint: mean survival time, dose: 0.5 mg/kg/injection, schedule: Q01DX009 (ip), vehicle: saline) was 128 % of control and the survivor count (T/C endpoint: mean survival time, dose: 8.0 mg/kg/injection, schedule: Q01DX009 (ip), vehicle: water) was 5 of 10.
`C(=NCCN1CCOCC1)=NC1CCCCC1` was tested, and the survivor count [7] was 0 of 6.
`[Cl][Pt+2][Cl].[NH-]c1ccc(CC(=O)O)cc1[NH-]` was tested, and the survivor count (T/C endpoint: mean survival time, dose: 50.0 mg/kg/injection, schedule: Q04DX003 (ip), vehicle: water) was 6 of 6, the survivor count (T/C endpoint: mean survival time, dose: 100.0 mg/kg/injection, schedule: Q04DX003 (ip), vehicle: water) was 6 of 6 and the survivor count (T/C endpoint: mean survival time, dose: 200.0 mg/kg/injection, schedule: Q04DX003 (ip), vehicle: water) was 3 of 6.
